For some assays here: The amount applied is not stated for every result.
Experiments:
[1] = nitration of plasma γ-tocopherol during FeCl3-induced thrombosis; assay type: in vivo, rat; conditions: anesthetized rats, FeCl3-laden patch on descending aorta, HPLC-ECD
[2] = plasma concentrations of tocopherols and 5-NO2-γ-tocopherol in volunteers; assay type: in vivo, human; conditions: mean ± SEM
Description: Smoking is recognized as a major contributing factor to heart disease and γ-T reportedly decreases more than α-T in smokers. Hypertension is also a strong risk factor for heart disease. […] Seven subjects indicated a chronic hypertensive condition. As outlined in Table I, γ-tocopherol tended to decrease in hypertensive subjects while nitration products tended to increase in both smokers and hypertensive subjects. This was the trend regardless of whether the tocopherol concentrations were normalized to plasma triglycerides (Table I).

[3] = chronic smokers; cited from earlier work
[4] = CAD patients, cited from earlier work; for reduction in lipid-normalized plasma concentration: N=69

Compound: Cc1c(C)c2c(c([N+](=O)[O-])c1O)CCC(C)(CCCC(C)CCCC(C)CCCC(C)C)O2 (centres unmarked) [5-NO2-γ-tocopherol, 5-nitro-γ-tocopherol]
- change of plasma level during FeCl3-induced thrombosis [1]: formed within minutes after initiation of thrombosis and increased steadily
- 5-NO2-γ-toc/y-toc × 1000 ([2]; hypertensives, N = 7): 8.20 ± 2.21
- 5-NO2-γ-toc/y-toc × 1000 ([2]; population, N = 54): 3.49 ± 0.74
- 5-NO2-γ-toc/y-toc × 1000 ([2]; smokers, N = 7): 5.47 ± 1.96

Compound: Cc1c(C)c2c(c(C)c1O)CC[C@@](C)(CCC[C@H](C)CCC[C@H](C)CCCC(C)C)O2 [α-tocopherol, reference compound]
- reduction of plasma level [3]: 20-25%
- reduction in lipid-normalized plasma concentration [4]: statistically unaffected
- change of plasma level during FeCl3-induced thrombosis [1]: not substantially affected

Compound: Cc1c(O)cc2c(c1C)O[C@](C)(CCC[C@H](C)CCC[C@H](C)CCCC(C)C)CC2 [γ-tocopherol]
- reduction of plasma level [3]: more than 50%
- reduction in lipid-normalized plasma concentration [4]: 25%
- decrease of the ratio of γT/αT [4]: 35%
- change of plasma level during FeCl3-induced thrombosis [1]: decrease
